We go through 6 molecules from publication PMC12515711.

Amino acid sequences for entries named in this document (tags omitted).
UniProt Q9DBC7: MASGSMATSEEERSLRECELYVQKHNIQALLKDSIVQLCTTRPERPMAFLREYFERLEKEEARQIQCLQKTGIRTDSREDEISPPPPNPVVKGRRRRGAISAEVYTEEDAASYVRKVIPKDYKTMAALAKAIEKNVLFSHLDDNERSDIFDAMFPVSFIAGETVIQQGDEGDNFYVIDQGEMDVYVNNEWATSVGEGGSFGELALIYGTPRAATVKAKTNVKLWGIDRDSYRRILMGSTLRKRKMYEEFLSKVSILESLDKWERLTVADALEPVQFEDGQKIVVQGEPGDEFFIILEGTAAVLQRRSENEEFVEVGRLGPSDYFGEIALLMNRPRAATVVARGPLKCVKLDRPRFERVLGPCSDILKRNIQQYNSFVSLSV
UniProt P12849: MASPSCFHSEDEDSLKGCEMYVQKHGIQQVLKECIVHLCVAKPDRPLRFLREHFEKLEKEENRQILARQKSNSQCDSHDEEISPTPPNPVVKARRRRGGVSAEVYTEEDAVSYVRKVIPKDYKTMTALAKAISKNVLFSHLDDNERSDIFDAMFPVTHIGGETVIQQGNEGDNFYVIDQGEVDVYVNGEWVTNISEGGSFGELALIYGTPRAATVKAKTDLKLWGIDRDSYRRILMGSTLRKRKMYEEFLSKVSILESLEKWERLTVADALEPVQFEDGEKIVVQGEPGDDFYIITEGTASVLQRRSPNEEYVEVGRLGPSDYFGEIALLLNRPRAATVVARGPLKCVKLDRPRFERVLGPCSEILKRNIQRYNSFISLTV
UniProt P12367: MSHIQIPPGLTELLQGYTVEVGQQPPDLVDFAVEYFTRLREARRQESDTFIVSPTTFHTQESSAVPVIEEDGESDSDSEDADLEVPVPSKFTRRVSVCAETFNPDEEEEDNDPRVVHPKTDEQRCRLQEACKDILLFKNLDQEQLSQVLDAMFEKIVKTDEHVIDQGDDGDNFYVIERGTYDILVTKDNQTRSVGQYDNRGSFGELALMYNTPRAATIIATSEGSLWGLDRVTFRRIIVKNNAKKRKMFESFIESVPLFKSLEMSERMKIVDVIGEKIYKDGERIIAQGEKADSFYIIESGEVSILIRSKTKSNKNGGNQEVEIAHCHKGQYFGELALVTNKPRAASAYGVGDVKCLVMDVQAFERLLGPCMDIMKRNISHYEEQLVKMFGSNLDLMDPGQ
UniProt P31324: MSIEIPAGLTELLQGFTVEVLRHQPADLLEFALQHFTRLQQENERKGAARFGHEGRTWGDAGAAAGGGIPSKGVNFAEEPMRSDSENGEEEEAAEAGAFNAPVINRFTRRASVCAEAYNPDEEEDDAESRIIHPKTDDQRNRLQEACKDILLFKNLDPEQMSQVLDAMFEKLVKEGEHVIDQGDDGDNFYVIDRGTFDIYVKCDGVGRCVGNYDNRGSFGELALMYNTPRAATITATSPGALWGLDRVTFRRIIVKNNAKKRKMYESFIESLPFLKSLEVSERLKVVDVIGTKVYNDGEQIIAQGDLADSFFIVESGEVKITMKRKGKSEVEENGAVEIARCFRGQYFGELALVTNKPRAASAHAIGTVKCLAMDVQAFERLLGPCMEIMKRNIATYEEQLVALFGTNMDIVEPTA

No constants are given. Whether binding was seen depends on the method and setting. In cells and extracts the contact can be indirect. A yes stands for co-enrichment or nearness to the bait. Other partners may have been found. For part of these data: A no says only that the protein was not detected with the bait. For part of these data: Tags and fused reporters may be left off the sequences shown.

T1: SNX5 on SNX5-coated vesicles immunoprecipitated from C2C12 myocytes (UniProt Q9D8U8)
T1 sequence: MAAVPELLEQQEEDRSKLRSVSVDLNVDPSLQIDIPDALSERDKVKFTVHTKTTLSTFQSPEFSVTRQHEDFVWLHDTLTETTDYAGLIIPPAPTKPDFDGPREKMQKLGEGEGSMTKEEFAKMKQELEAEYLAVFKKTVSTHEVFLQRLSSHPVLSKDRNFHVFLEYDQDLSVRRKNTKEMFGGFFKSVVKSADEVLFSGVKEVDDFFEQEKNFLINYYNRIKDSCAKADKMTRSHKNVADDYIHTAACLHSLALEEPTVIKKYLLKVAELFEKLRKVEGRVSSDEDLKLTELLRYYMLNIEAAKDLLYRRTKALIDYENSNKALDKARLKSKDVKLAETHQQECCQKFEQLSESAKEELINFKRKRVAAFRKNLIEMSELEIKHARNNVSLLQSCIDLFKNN

T2: MuRF3-Myc (His)6 (in C2C12) (UniProt Q9ERP3)
T2 sequence: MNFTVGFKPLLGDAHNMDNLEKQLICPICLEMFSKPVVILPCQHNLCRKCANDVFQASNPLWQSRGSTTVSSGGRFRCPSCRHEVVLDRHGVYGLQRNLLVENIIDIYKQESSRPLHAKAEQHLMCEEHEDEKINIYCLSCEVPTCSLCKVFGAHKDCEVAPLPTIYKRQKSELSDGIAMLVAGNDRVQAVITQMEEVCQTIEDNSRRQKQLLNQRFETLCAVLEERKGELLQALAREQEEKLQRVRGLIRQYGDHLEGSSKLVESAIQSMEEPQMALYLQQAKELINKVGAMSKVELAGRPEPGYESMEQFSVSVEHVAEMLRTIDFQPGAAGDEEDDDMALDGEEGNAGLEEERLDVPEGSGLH

B1: SNX2 (protein, UniProt Q9CWK8 1-519)
chain: MAAEREPPPLGDVKPTDFEELEDGEDLFTSTVSTLESSPSSPEPASLPAEDISANSNGSKPVEVVLDDDREDLFAEATEEVSLDSPERELILSSEPSPAVTPVTPTTLIAPRIESKSISAPVIFDRSRDEIEEEANGDIFDIEIGVSDPEKVGDGMNAYMAYRVTTKTSLSMFSKSEFSVKRRFSDFLGLHSKLASKYLHVGYIVPPAPEKSIVGMTKVKVGKEDSSSTEFVEKRRAALERYLQRTVKHPTLLQDPDLRQFLESSELPRAVNTQALSGAGILRMVNKAADAVNKMTIKMNESDAWFEEKQQQFENLDQQLRKLHASVEALVCHRKELSANTAAFAKSAAMLGNSEDHTALSRALSQLAEVEEKIDQLHQEQAFADFYMFSELLSDYIRLIAAVKGVFDHRMKCWQKWEDAQITLLKKRETEAKMMVANKPDKIQQAKNEIREWEAKVQQGERDFEQISKTIRKEVGRFEKERVKDFKAVIIKYLESLVQTQQQLIKYWEAFLPEAKAIA
B2: sorting nexin 5 (SNX5), endogenous in C2C12 (protein, UniProt Q9D8U8 1-404)
chain: MAAVPELLEQQEEDRSKLRSVSVDLNVDPSLQIDIPDALSERDKVKFTVHTKTTLSTFQSPEFSVTRQHEDFVWLHDTLTETTDYAGLIIPPAPTKPDFDGPREKMQKLGEGEGSMTKEEFAKMKQELEAEYLAVFKKTVSTHEVFLQRLSSHPVLSKDRNFHVFLEYDQDLSVRRKNTKEMFGGFFKSVVKSADEVLFSGVKEVDDFFEQEKNFLINYYNRIKDSCAKADKMTRSHKNVADDYIHTAACLHSLALEEPTVIKKYLLKVAELFEKLRKVEGRVSSDEDLKLTELLRYYMLNIEAAKDLLYRRTKALIDYENSNKALDKARLKSKDVKLAETHQQECCQKFEQLSESAKEELINFKRKRVAAFRKNLIEMSELEIKHARNNVSLLQSCIDLFKNN

One assay deals with T1, SNX5 on SNX5-coated vesicles immunoprecipitated from C2C12 myocytes. Description: affinity purification with mass spectrometry; SNX5-coated vesicles immunoprecipitated from C2C12 myocytes, then mass spectrometry (workflow in Figure S4A).
In the case of “RI-α (cAMP-dependent protein kinase type I alpha regulatory subunit) (from UniProt Q9DBC7 1-381)”, the binding result is recorded as “binds”.

For the molecule RI-β (from UniProt P12849 1-381), the binding entry is “no binding”.

RII-α (from UniProt P12367 1-401): the binding result was “no binding”.

Regarding RII-β (from UniProt P31324 1-416), the binding result was “no binding”.

For B1, the binding result is given as “binds”.

Another assay deals with T2, MuRF3-Myc (His)6 (in C2C12). Description: affinity purification with mass spectrometry; SILAC; MuRF3-Myc (His)6 captured on Ni-Sepharose-6 Fast Flow from lysate of transfected Lys0 C2C12 cells (10 mM Tris-HCl pH 7.5, 150 mM NaCl), 3 h at 4°C; Lys4 cells with control vector; eluted with 120 mM EDTA.
B2: the binding entry is reported as “binds”.
